The results are deposited in PubChem (AID1159506; NCATS, 2015).

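Genome-wide siRNA knockdown in TC32 Ewing sarcoma cells, comparing luciferase light from an NR0B1-promoter reporter with a CMV-promoter reporter 48 hours after transfection. Each siRNA was applied at 20 nM. A z-score of the log NR0B1-over-CMV signal, less the median of siRNAs with the same seed; more negative means a stronger specific loss of the NR0B1 reporter.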

The strongest results of the screen are mostly left out here. Sequences are the guide (antisense) strand, without overhang.

Result for UGGGAUGUUAGCCUUGUCC against HMGA1 was seed-corrected z-score 0.9136.
Result for AGGAUUUUCACAGACUUGG against TRIM8 was seed-corrected z-score 0.514.
Result for AAGGAGGUCAUUGUCAGUC against TMEM63A was seed-corrected z-score -0.8748.
Result for AUCUCUUCCAUCAUAAGGC against EYA2 was seed-corrected z-score 0.3354.
Result for UGGUUUAUCAUAGCGAUAC against KDM7A was seed-corrected z-score -1.4.
Result for UAGCUAGGAACAGCUAUUC against RSRC2 was seed-corrected z-score -0.4973.
Result for UGAGAGAUUAGGCUGCUUC against SNCA-AS1 was seed-corrected z-score -0.1177.
Result for AAUCACUCCACACUUGUUU against RPS15AP17 was seed-corrected z-score 0.8296.
Result for UUAUAGUCCACAUUCACUU against VTCN1 was seed-corrected z-score 0.277.
Result for UCAUCUAUCGGGUAGGUCG against TSTA3 was seed-corrected z-score 0.1899.
Result for UCCUGGAUCAUACAGCUGC against UPF3A was seed-corrected z-score -0.1758.
Result for UUCCAUACAGGGUUCACGC against DYSF was seed-corrected z-score -0.8418.
Result for AUAAGUAUAAAUAAGGCAC against IL11 was seed-corrected z-score 0.1368.
Result for AAAGCUGUCUGUAAGAGCC against SRI was seed-corrected z-score 1.127.
Result for UCCGUAAUCUUGACGGUGC against EIF2AK4 was seed-corrected z-score 0.06613.
Result for AAAGCUACGAUGUGAGAUG against EVI2A was seed-corrected z-score 0.1431.
Result for UCUGUGUGCAAUCCACUUU against TGFB1I1 was seed-corrected z-score -0.8383.
Result for AAACUUUCAAACUCAGACA against SOGA1 was seed-corrected z-score -0.01395.
Result for UUCUUAUCACCUUUCCACC against MORN3 was seed-corrected z-score 0.7706.
Result for UUUAGAGACCGUGCGAUGC against TMC3 was seed-corrected z-score -0.2273.
Result for UCAUUGCUCCGUCUCAGGC against RABEP2 was seed-corrected z-score 0.7883.
Result for UUAGUAAGGAUAUCAAGAG against DMRTA1 was seed-corrected z-score -1.125.
Result for UCAGGGUUCAGGAAUCGGU against PTGIS was seed-corrected z-score -0.3806.
Result for UCCUGUGCAAAUCUCCUUC against CARM1 was seed-corrected z-score 1.336.
Result for UUCGGAAUUGGUUUAGCAC against ALOX12 was seed-corrected z-score 0.6741.
Result for UUUGUGCUUGUGCUUAUUC against MED19 was seed-corrected z-score 0.6889.
Result for UCCAGAUCCACACUGAUGG against TBC1D1 was seed-corrected z-score 0.3293.
Result for UAACUUGAGUCUUAUUUCC against GTF2A1 was seed-corrected z-score 0.6115.

Some entries from above, unchanged:

{"strand": "UUCUUAUCACCUUUCCACC", "target gene": "MORN3", "seed-corrected z-score": "0.7706"}
{"strand": "AAGGAGGUCAUUGUCAGUC", "target gene": "TMEM63A", "seed-corrected z-score": "-0.8748"}
{"strand": "UCAUUGCUCCGUCUCAGGC", "target gene": "RABEP2", "seed-corrected z-score": "0.7883"}